Laboratory results published in patent US10716787B2, “Combinations” (ASTEX THERAPEUTICS LTD, priority 2014, dated 2020).

What was measured:
NCI-H1581 cells = assay: Incucyte proliferation (confluence over time), prolonged treatment of NCI-H1581 cells; format: cell-based; conditions: 1 microM each agent
Protocol: FIG. 2: Incucyte graph (% confluence over time) representing the proliferation of NCI-H1581 cells treated with single agents (compound A [1 microM] or compound D [1 microM]) or combination of both compound A [1 microM] and compound D [1 microM], and DMSO as vehicle control.
(§1) The insensitive cells were isolated and profiled with the aim to determine the active signaling pathways that act as drivers for their survival and/or proliferation. Therefore, NCI-H1581 cells were plated onto 10 cm Collagen I coated plates and placed in an incubator at 37° C., 5% CO2. The cells were grown in growth medium (see below), for the parental cells with or without DMSO control, or in growth medium supplemented with high dose of compound A (1 microM final concentration of compound A in the medium, compound A was added as a sample diluted from a stock solution in DMSO), for the resistant cells, over a prolonged period of time. During the time of growing out the compound insensitive cells, medium supplemented with compound A [1 microM], was changed twice weekly. In the case of the parental cells with or without DMSO control, when the cells reached the confluence close to 100% they were trypsinized and re-plated back on the plate. In the compound treated plates outgrowth of resistant clones were observed. […]

parental NCI-H1581 cells = assay: Alamar blue proliferation assay, parental NCI-H1581 cells; format: cell-based; conditions: DMSO taken as 100%
Protocol: (§2) This was for instance observed by a plateau in the proliferation curve around ˜10% of DMSO control (value observed in the assay for DMSO is taken as 100%, and values observed for the dose treatments with compound are calculated as % of 100% DMSO).
as §1, with “weekly.” for “weekly. In the case of the parental cells with or without DMSO control, when the cells reached the confluence close to 100% they were trypsinized and re-plated back on the plate. In the compound treated plates outgrowth of resistant clones were observed.”
(§3) Compound/medium plates were placed on a shaker for 10 minutes and then 20 μl of compound in medium was added to the cells (10× dilution). Cells were incubated at 37° C. and 5% CO2 for 4 days until alamarBlue® readout.
After 4 days of incubation with compound: Add 40 μl of alamarBlue® ready to use mix to each well. […]

[1] = system: most sensitive cancer cell lines; assay: Alamar blue cell based proliferation assay, most sensitive cancer cell lines
Protocol: as §2
Cells were seeded in 180 μl of medium at optimized cell densities in black 96 well plates with clear flat bottom. The outer wells were filled with 180 μl of medium. Cells were incubated for 24 hours at 37° C. and 5% CO2.
Next day compound dilutions were prepared in a 96 well plate with round bottom (Corning #3365). A 50× dilution of the compound was prepared in medium, 4 μl of compound stock in 196 μl of medium in a 96 well plate (Corning #3585).
as §3
After 4 days of incubation with compound: Add 40 μl of alamarBlue® ready to use mix to each well. Incubate plates at 37° C. and 5% CO2. Measure plates after 4 or 6 hours of incubation (depends on cell line). Shake plates and measure RFU at ex.: 544 nm and em.: 590 nm
The alamarBlue® Assay incorporates a fluorometric/colorimetric growth indicator based on detection of metabolic activity. […]

Met oncogene = assay: Microarray gene expression profiling of resistant versus parental NCI-H1581 cells; format: cell-based; conditions: 1 microM, 1 day, 1 week and 2 weeks
Protocol: as §1, with “observed. After about 3 weeks from the initial treatment, cells were taken out of the plate by trypsinization and passaged on new plate for further expanding. Resistant cells, same as the parental cells were passaged twice weekly, but the medium of the resistant cells was always supplemented with compound A [1 microM]. (test 1)” for “observed.”

H1581^Met(+) cells = assay: Incucyte live cell imaging proliferation, sorted H1581 Met(+) cells; format: cell-based; set-up: dose or concentration left out as unconfirmed; conditions: four days
Protocol: FIG. 4. Incucyte graph (% confluence over time) representing the proliferation of NCI-H1581 cells and NCI-H1581^Met(+) cells treated with compound A [0.1 microM] or a combination of compound A [0.1 microM] and compound D [1 microM], and DMSO as vehicle control.
Inhibition of growth of H1581^MET(+) cells by combination of FGFR and MET inhibitors. Parental, unsorted H1581 cells, and sorted H1581^Met(+) cells, subpopulation of H1581 cells that have high Met expression, were plated at 75000 cells per well in 24 well plate. One day later, cells were treated with compound A (0.1 mM) or combination of compound A (0.1 mM) and compound D (1 mM), or DMSO serving as a vehicle and the cell proliferation was assessed by measuring cell confluence over a period of four days using Incucyte live cell imaging. Images were acquired every two hours. Proliferation of cells was presented as the mean of percentage of confluence±SD (n=2).

Structure (SMILES): COc1cc(OC)cc(N(CCNC(C)C)c2ccc3ncc(-c4cnn(C)c4)nc3c2)c1 [compound A, N-(3,5-dimethoxyphenyl)-N′-(1-methylethyl)-N-[3-(1-methyl-1H-pyrazol-4-yl)quinoxalin-6-yl]ethane-1,2-diamine]
- proliferation (confluence of the cells over time) (NCI-H1581 cells): initially blocked the proliferation
- plateau in the proliferation curve (parental NCI-H1581 cells): ~10 % of DMSO control
- IC50 [1]: < 10 nM
- Met oncogene expression (microarray) (Met oncogene): upregulated in a time dependent manner
- cell growth and proliferation (confluence) (H1581^Met(+) cells): minor sensitivity
